Test results: ChEMBL document CHEMBL1133501, “Conformationally constrained anesthetic steroids that modulate GABA(A) receptors” (J Med Chem, 2000)

Target: GABA-A receptor; anion channel
Test: Inhibition of binding of tert-butyl bicyclophosphorothionate ([35 S]TBPS) at Gamma-aminobutyric acid A receptor from rat whole brain membranes
Format: cell membranes, Membrane

## CC(=O)[C@H]1CC[C@H]2[C@@H]3CC[C@H]4C[C@H](O)CC[C@]4(C)[C@H]3C(=O)C[C@]12C [ALFAXALONE]
  IC50: 423 nM
